Data: doi:10.1101/2022.10.20.512913
Results are given in words; binding and its absence hold for the method and conditions named. In cells and extracts the contact can be indirect. Some entries that bind do so weakly or less than the wild type. For some assays here: Where a sequence is shown, tags or fusion partners need not be part of it. One block for each binder: values may come before it.

Sequences of proteins named here, by UniProt entry; tags and fusion partners are left off.
UniProt Q8VZQ4: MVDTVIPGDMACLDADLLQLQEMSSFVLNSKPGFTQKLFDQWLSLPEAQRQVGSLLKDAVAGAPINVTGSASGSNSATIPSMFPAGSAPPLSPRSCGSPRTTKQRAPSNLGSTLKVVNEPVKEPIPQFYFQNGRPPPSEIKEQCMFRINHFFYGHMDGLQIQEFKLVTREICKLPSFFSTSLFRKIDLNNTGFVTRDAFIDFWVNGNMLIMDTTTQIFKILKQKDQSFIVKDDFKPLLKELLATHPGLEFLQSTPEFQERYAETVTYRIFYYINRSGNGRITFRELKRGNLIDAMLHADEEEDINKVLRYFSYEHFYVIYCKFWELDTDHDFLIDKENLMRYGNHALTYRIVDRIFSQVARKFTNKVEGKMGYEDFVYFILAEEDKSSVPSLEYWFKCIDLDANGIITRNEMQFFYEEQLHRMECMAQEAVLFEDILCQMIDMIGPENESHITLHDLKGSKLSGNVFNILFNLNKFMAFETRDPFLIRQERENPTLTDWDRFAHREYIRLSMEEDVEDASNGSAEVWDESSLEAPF

Experiments:
[1] = molecular target: T1, FLOT2-GFP (Arabidopsis), Q4V3D6; assay: co-IP; details: remark: other sources report otherwise
T1 chain: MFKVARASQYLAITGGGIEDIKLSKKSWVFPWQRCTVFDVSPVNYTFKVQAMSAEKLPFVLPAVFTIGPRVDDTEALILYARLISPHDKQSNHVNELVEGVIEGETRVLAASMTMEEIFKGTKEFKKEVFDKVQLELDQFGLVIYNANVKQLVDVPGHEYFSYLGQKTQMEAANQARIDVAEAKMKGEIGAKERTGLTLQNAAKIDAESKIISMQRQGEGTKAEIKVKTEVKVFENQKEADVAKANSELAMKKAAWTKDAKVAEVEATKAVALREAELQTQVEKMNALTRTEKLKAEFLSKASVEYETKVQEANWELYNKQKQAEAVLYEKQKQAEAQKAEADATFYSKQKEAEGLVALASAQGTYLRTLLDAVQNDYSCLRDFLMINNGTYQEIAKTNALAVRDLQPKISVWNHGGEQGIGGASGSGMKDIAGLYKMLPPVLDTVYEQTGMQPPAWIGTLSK

[2] = molecular target: PP2A-B’’γ-YFP (Arabidopsis) (UniProt Q8VZQ4); assay: co-IP

binding [1]: binds
B1: PIP2;1-mCherry, P43286 1-287 (protein)
chain: MAKDVEAVPGEGFQTRDYQDPPPAPFIDGAELKKWSFYRAVIAEFVATLLFLYITVLTVIGYKIQSDTDAGGVDCGGVGILGIAWAFGGMIFILVYCTAGISGGHINPAVTFGLFLARKVSLPRALLYIIAQCLGAICGVGFVKAFQSSYYTRYGGGANSLADGYSTGTGLAAEIIGTFVLVYTVFSATDPKRSARDSHVPVLAPLPIGFAVFMVHLATIPITGTGINPARSFGAAVIYNKSKPWDDHWIFWVGPFIGAAIAAFYHQFVLRASGSKSLGSFRSAANV

binding [2]: binds
B2: PIP2;1-mCherry (protein, UniProt P43286 1-287)
chain: B1 chain
